{
  "source": "paper doi:10.1101/581231",
  "target": "Arabidopsis thaliana SOBIR1 ectodomain (residues 1-270) (Arabidopsis thaliana) (UniProt Q9SKB2)",
  "assay": "crystal structure",
  "note": "These are yes or no findings as the source states them, for the method shown.",
  "data": [
    {"binder": "Arabidopsis thaliana SOBIR1 ectodomain (residues 1-270) (domain or fragment, UniProt Q9SKB2 32-270, N-glycan attached to asparagine 154) VEWLDIDSSDLKALQVIETELGVNSQRSSASDVNPCGRRGVFCERRHSATTGEYVLRVTRLVYRSRSLTGTISPVIGMLSELKELTLSNNQLVNAVPVDILSCKQLEVLDLRKNRFSGQIPGNFSSLSRLRILDLSSNKLSGNLNFLKNLRNLENLSVANNLFSGKIPEQIVSFHNLRFFDFSGNRYLEGPAPVMSSIKLQTSPHQTRHILAETPTSSPTNKPNNSTTSKAPKGAPKPG", "values": [
      {"measurement": "binding", "value": "no binding"}
    ]}
  ]
}
